Experiment [1] concerns the target T1, HA-Melg3 (meiotic nuclear elongation 3) (Tetrahymena thermophila).
T1 sequence: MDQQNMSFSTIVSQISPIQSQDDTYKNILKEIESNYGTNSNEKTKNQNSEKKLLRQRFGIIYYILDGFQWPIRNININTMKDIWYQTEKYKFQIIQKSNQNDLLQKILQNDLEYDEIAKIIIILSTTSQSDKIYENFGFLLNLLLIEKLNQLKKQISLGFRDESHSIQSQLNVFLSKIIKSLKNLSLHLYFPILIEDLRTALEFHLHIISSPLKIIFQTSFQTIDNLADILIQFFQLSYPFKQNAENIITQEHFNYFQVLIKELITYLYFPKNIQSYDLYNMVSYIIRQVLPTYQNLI
The experiment in a line: affinity purification with mass spectrometry; overexpressed HA-Melg3 or HA-Tass1 as bait; soluble lysate in Tris lysis buffer and benzonase extract of the insoluble pellet of mating cells 3.5 h after meiotic induction; EZview red anti-HA affinity gel, 2 h, 4°C; hits by SAINTexpress, Bayesian FDR 0.05 or less.

Chains of the proteins cited; added tags and fusions are not shown. Lines headed by an entry give the natural chain unless they say otherwise; changes in a name come on top.
UniProt I7MKG8: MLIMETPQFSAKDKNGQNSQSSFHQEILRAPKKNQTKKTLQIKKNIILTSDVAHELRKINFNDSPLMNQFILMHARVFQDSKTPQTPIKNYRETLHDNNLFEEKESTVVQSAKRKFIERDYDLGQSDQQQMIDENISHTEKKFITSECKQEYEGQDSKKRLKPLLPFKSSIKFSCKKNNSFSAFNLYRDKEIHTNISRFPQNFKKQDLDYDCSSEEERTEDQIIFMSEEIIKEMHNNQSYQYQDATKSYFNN
UniProt I7M9G4: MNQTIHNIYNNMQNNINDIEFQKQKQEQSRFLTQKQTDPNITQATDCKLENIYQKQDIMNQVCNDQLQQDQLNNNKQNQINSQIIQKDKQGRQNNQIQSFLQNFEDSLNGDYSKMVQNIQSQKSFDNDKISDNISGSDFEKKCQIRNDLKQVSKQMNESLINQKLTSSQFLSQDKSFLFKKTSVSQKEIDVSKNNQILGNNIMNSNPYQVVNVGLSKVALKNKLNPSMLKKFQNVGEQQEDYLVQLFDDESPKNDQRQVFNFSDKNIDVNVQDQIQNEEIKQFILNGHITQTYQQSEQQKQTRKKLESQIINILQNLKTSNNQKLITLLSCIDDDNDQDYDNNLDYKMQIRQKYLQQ
UniProt O76506: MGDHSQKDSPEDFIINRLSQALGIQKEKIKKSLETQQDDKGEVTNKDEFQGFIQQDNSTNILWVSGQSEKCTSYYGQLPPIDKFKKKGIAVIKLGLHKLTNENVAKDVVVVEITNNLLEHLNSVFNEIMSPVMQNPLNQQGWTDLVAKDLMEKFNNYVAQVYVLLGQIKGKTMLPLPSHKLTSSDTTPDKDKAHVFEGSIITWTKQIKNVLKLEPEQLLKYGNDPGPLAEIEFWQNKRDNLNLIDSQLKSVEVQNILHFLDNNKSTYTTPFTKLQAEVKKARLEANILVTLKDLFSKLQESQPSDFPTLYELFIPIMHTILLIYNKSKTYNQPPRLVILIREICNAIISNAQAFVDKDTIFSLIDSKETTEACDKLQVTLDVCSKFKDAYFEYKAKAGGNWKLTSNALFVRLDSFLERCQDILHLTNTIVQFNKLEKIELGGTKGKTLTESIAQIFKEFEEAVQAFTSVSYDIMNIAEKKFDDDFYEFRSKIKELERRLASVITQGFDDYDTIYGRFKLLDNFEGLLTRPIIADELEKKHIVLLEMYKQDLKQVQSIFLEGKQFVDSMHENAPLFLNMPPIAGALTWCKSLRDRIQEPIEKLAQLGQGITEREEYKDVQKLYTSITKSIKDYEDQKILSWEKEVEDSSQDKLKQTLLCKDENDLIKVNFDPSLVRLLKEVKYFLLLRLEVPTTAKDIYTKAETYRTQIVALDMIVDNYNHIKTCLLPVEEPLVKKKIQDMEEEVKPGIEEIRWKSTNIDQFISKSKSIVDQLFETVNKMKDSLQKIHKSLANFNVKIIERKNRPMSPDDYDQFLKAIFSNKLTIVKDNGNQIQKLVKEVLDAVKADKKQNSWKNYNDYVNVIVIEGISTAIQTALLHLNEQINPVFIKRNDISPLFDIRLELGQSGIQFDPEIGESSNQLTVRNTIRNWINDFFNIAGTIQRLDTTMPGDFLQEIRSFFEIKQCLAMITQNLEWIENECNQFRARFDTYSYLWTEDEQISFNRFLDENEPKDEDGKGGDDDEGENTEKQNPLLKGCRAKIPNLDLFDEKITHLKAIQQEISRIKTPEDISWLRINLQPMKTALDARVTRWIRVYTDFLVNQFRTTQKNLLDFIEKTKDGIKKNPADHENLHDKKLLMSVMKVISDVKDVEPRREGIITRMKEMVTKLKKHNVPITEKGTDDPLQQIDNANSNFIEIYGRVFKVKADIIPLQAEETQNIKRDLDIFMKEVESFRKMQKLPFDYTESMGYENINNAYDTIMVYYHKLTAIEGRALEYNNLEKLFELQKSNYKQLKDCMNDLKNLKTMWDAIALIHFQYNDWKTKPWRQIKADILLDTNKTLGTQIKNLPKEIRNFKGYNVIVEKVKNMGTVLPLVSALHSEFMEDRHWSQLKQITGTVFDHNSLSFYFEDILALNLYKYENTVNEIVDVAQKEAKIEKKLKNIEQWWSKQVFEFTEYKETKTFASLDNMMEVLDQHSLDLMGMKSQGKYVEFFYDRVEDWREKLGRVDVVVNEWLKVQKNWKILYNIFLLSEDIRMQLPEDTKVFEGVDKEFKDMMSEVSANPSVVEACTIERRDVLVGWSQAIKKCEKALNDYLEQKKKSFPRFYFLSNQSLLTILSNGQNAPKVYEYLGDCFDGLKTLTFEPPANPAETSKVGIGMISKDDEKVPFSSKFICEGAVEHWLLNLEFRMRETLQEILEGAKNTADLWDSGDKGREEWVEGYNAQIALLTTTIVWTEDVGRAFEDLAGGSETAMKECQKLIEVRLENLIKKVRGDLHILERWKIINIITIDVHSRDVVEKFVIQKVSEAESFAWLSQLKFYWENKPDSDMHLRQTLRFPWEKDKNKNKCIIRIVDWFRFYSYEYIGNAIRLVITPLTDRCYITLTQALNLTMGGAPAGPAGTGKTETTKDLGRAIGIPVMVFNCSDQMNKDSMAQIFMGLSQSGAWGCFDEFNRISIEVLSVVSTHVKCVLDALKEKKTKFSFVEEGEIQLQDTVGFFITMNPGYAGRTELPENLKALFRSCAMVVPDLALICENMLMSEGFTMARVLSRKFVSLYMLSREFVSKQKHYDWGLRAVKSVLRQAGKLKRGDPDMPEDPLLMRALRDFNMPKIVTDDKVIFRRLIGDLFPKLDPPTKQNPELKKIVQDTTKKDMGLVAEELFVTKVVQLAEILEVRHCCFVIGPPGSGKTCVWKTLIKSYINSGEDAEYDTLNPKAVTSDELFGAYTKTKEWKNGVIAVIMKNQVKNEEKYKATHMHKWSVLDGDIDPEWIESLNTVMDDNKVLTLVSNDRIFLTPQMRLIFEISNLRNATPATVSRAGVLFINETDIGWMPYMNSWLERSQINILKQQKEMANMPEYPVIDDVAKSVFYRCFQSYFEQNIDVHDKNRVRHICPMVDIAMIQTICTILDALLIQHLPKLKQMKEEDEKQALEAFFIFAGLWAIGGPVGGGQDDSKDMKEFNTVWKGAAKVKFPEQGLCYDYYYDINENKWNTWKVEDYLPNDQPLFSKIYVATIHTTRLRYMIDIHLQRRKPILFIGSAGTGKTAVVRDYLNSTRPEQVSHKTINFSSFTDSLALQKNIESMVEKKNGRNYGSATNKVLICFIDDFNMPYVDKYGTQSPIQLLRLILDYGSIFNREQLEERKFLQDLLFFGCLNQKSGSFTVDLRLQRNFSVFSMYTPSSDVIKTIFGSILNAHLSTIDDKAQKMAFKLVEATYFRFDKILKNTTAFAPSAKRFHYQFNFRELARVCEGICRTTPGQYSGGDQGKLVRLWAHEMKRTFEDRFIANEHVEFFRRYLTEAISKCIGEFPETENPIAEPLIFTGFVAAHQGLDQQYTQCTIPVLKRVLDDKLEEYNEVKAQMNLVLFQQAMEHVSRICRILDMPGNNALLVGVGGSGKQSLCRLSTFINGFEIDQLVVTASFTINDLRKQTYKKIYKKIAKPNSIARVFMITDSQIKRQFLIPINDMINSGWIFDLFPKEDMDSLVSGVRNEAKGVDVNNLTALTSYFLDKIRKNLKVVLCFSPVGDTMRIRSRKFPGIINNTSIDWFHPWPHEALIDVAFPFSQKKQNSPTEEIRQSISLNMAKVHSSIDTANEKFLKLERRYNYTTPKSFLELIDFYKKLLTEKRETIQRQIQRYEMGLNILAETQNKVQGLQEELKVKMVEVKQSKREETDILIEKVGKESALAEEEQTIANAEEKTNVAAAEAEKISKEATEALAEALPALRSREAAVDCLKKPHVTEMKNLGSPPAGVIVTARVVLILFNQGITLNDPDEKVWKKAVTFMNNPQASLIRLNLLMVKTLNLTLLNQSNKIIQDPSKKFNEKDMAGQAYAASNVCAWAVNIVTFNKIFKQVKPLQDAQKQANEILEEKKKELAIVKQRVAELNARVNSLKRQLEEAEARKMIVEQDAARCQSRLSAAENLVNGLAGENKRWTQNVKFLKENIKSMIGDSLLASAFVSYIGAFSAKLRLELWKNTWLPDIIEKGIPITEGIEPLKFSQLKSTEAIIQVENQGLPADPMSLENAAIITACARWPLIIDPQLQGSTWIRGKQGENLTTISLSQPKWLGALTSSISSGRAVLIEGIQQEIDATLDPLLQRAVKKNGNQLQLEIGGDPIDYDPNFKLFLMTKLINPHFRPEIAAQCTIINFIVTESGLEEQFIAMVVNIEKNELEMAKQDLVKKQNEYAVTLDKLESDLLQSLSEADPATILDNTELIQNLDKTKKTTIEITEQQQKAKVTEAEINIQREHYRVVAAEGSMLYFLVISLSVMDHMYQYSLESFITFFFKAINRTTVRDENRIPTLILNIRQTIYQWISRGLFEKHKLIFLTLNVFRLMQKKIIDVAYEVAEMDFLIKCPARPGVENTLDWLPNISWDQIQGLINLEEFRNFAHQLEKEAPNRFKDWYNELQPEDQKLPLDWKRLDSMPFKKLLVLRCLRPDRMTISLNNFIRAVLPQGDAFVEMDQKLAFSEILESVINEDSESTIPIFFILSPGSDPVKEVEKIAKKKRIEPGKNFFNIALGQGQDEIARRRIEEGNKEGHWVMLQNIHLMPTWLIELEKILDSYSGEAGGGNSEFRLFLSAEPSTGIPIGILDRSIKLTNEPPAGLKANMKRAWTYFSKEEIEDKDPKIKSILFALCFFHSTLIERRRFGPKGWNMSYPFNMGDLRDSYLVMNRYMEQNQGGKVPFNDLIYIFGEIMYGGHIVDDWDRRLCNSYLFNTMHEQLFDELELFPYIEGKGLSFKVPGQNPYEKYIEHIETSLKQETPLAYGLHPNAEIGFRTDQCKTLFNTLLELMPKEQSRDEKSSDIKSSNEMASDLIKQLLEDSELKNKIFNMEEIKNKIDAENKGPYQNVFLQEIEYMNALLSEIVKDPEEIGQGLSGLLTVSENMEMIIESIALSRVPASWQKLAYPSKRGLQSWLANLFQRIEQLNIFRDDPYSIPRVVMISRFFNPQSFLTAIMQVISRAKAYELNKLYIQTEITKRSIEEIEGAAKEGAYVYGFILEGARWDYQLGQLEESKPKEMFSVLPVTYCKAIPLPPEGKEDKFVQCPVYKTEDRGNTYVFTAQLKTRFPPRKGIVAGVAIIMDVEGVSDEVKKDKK
UniProt Q22HC0: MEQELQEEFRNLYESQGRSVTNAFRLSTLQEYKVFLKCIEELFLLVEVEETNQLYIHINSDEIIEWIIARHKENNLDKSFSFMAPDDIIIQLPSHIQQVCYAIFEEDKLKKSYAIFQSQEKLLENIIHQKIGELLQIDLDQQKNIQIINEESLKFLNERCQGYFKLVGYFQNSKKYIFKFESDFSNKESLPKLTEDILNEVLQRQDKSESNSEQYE
UniProt Q22CT9: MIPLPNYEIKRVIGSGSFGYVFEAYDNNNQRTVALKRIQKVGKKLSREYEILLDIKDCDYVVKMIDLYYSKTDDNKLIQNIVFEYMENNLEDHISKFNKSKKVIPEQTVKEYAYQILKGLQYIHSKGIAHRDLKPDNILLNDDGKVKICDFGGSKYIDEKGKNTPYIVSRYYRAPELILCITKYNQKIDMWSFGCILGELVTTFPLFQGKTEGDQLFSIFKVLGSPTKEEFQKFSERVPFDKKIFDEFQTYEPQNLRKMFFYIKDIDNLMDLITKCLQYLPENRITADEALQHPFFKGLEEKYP

Experiment [2] deals with Melg2-HA (meiotic nuclear elongation 2) (Tetrahymena thermophila) (UniProt I7MKG8). Put plainly: affinity purification with mass spectrometry; Melg2-HA as bait; soluble lysate of mating cells 3.5 h after meiotic induction in Tris lysis buffer (150 mM NaCl, 0.1% Triton X-100, pH 7.4); EZview red anti-HA affinity gel, 2 h, 4°C; hits by SAINTexpress, Bayesian FDR 0.05 or less.

The target of experiment [3] is HA-Tass1 (Telomere-associated 1, TTHERM_00933110p) (Tetrahymena thermophila) (UniProt I7M9G4). The experiment in a line: affinity purification with mass spectrometry; overexpressed HA-Melg3 or HA-Tass1 as bait; soluble lysate in Tris lysis buffer and benzonase extract of the insoluble pellet of mating cells 3.5 h after meiotic induction; EZview red anti-HA affinity gel, 2 h, 4°C; hits by SAINTexpress, Bayesian FDR 0.05 or less.

The results in this text go back to article PMC7725606.

Results are given in words; binding and its absence hold for the method and conditions named. In cells and extracts the contact can be indirect. Here binding means that the protein was enriched with, or labelled near, the bait; the list need not be complete. For part of these data: Tags and fused reporters may be left off the sequences shown.

As for “dynein Dyh4 (from UniProt O76506 1-4589)”, the binding result in experiment [1] is reported as “binds”.

Take dynein Dyh15: the binding entry in experiment [1] is recorded as “binds”.

In the case of TTHERM_00637830p (from UniProt Q22HC0), in experiment [1], the binding result was “binds”.

Take dynein Dyh5: in experiment [1], the binding result is “binds”.

With “glycogen synthase kinase 3 (Gsk3)-like protein (encoded by TTHERM_01016020) (from UniProt Q22CT9)”, in experiment [2], the binding result is listed as “binds”.

Aip1: the binding result in experiment [1] was “binds”.

On to Aip2, for which the binding result in experiment [1] is “binds”.

Take “TTHERM_00933110p (Tass1; Telomere-associated 1), endogenous (from UniProt I7M9G4)”: in experiment [1], the binding entry is reported as “binds”.

B1: Teb1 (the DNA-binding subunit of the telomerase holoenzyme) (protein, UniProt D2CVN6 1-701)
chain: MKLTKGGSYILKKVDRKQFYQDEEIVMQIKKILGQKTTDCKQYIKCECIDGLGDEALIYFEMLANQNQHLQKNDVIMIQDYLNDKTQNDKIVVLVTRFQFCKASHVQPKTAQKESIQLLNTEKTIIQKSKITKNPAEEVLKFIEVNEKDNSSNSEDMIIEQQKQEIKNNQKEKQSINGFNLEDSYSNISDITNFGGKSNFNIGSLSDQLSKQTLLISQLQVGKNRFSFKFEGRVVYKSSTFQNQQDSKYFFITAQDANNQEINLSFWQKVDQSYQTLKVGQYYYFIGGEVKQFKNNLELKFKFGDYQIIPKETLSANYVQPLALQPSKQFGNDSIGDSDYSIHNLIEKEESIAQKGYNGQKNNKYRQNNNNSKHTLLISEVLKTSKQYLSVLAQVVDIQSSDKNIRLKICDNSCNQELKVVIFPDLCYEWRDKFSINKWYYFNEFVRQIYNDEVQLKNNIHSSIKESDDQRKVITYNQEQGVFKKSISINSNDSFEIKPKISYKNNSNQEQRIYSSIEEIIQQAQASEIGQKKEFYVYGNLVSIQMKNKLYYYRCTCQGKSVLKYHGDSFFCESCQQFINPQVHLMLRAFVQDSTGTIPVMIFDQQSSQLINQIDPSIHVQEAGQYVKNCIENGQEEIIRQLFSKLDFARFIFEIQFENKEFNNEQEIAYKVLKIEKENIKEESKYLLKKLEHLINNNQNN
As for B1, in experiment [3], the binding entry is “binds”.
